No constants are given. Whether binding was seen depends on the method and setting. Binding seen in cells or lysates may run through a third protein. Here binding means that the protein was enriched with, or labelled near, the bait; the list need not be complete.
Target: Flag-tagged CCNB1 (UniProt P14635)
Test: affinity purification with mass spectrometry; HCT116 cells transfected with Flag-tagged CCNB1; RIPA lysis buffer; anti-Flag antibody-conjugated agarose; eluted with 100 uM Flag peptide; trypsin digest, mass spectrometry

Sequences of proteins named here, by UniProt entry; tags and fusion partners are left off.
UniProt P14635: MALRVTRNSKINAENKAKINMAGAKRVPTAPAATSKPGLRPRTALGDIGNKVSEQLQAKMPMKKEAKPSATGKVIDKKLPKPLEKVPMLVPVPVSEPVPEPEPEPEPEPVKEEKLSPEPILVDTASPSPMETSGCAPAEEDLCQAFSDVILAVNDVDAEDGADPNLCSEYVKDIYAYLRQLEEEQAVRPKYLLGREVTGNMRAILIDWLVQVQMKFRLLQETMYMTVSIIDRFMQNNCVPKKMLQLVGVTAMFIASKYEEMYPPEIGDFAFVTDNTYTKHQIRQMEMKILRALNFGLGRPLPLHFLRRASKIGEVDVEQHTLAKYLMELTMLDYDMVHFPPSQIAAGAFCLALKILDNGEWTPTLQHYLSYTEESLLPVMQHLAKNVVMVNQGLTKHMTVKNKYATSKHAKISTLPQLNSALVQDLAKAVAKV
UniProt Q00526: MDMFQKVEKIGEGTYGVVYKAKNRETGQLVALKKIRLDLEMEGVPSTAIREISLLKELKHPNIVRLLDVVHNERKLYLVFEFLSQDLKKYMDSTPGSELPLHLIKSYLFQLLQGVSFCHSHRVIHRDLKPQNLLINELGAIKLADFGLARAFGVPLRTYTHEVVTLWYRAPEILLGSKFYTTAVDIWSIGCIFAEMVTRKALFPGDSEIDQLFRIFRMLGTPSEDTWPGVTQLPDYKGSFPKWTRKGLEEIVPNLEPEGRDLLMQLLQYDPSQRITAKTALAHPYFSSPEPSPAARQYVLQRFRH

binding: binds
Substance: CDK3 (from UniProt Q00526 1-305) (enzyme)

From PMC4809424
